Our source for the z-score values is PubChem BioAssay AID1508600 (Functional Genomics Laboratory (NCATS/FGL), 2020).

In all, about 53,000 sequences went through this assay and about 3,700 (7%) were called active.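 How the source made its calls: active means gene knockdowns whose robust z-score for IL-1 alpha signal is at least 2 or at most -2, so actives lie on both sides; inactive means the rest.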 The list shows a part of the results.

The nature of the test: Components of the Cytosolic LPS Sensing Pathway: Gene Identification via Genome-wide siRNA Screen.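 Further: robust z of the log signal after scaling to non-targeting control siRNA wells of the plate.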 To be noted: RAW264.7 macrophages, IL-1a HTRF, actives lie on both sides, screened at 100 nM (by protocol), cells primed 5 h with Pam3CSK4 first. The procedure, abridged:
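RAW264.7; siRNA 100 nM final, RNAiMAX, 48h 37 degrees C; Pam3CSK4 5 h; LipidA + TransIT-TKO 24 h; IL-1a HTRF; CellTiter-Glo viability; robust z vs negative-control median.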
For the sequence GAUGUUCUUUGUCCACAUGTT against Olfr666, the z-score was inactive: -0.325.

As for CCUUCAGCUUCCUUUUUACTT against Skint11, the z-score is inactive: 1.05.

GAAGGAGAAGGAAGAGUUGTT against Cadps: the z-score is inactive: 1.08.

In the case of CGAAGGCUUUUGAAUUCAATT against Pcdh17, the z-score was inactive: 0.41.

In the case of CGCAUCAUAUUCUGAUUCCTT against Rmnd5b, the z-score is inactive: 0.138.

On to GGCUGAGUCUACCAACAGUTT against Tns4, for which the z-score was inactive: -1.91.

As to GGCCUUGCUUCGAUGUAGUTT against Gemin7, the z-score is inactive: -0.206.

As for GCCCUACACCUGUAUUACATT against Tas1r3, the z-score is inactive: -0.964.

As for GGAUAUUCGAGCAACCUUUTT against Pcdhb18, the z-score is inactive: -0.571.

Take GGCAAUUCGAAUUUUGGUUTT against Rtraf: the z-score is inactive: 0.891.

Take CCAUCUGAGAACAUCAUUGTT against Gm11507: the z-score is inactive: 0.114.

With GGCAAAGUUGUCCUAAGGUTT against Rab27b, the z-score was active: 2.54.

Take GGCUGCUUCAGAUUUUCACTT against Naalad2: the z-score is inactive: -0.0554.

Regarding GGCUUAAAUGCGUUCUACATT against Slc25a3, the z-score is inactive: 0.0986.

For GCCAAAUUAGGUGACACUATT against Rgcc, the z-score is inactive: -1.71.

With GAAGGCCAAUGAUCGGGAGTT against Neurog3, the z-score is active: -2.1.

For the sequence GGCCUUUCUAGAGCUGUGGTT against Rinl, the z-score is inactive: -1.37.

Turning to GGCGGUGAUGGAAUGAACATT against Plod2, the z-score is inactive: 0.706.

On to CCACAUUGUAGGCAACCAATT against Hpd, for which the z-score is inactive: -1.06.

Regarding GCUAAUGGCAGAGUAACCUTT against Pcdhga1, the z-score was inactive: 1.09.

On to GCCAGUUACGCGGACAUUUTT against Rasgrf2, for which the z-score was inactive: -0.348.

As to GGAUAAGGUCCAGUACUUGTT against Mapk13, the z-score is inactive: -1.32.

Consider GCACAGGUGAGCUCUUUGATT against Nudt10, for which the z-score is inactive: -1.12.

With CCGUGGUUUCUACAGUGUUTT against Ppp4c, the z-score is inactive: -0.535.

On to GGUAGAAGAUUCAAAAUCUTT against Canx, for which the z-score was inactive: 0.465.

Regarding GGAGUGGUGUGUCAUUGAUTT against Impact, the z-score is inactive: -0.663.

Take GGAAGAGGUCUUUAAUACATT against Kif4: the z-score was active: 2.86.

GGACAAAAGACACAUGUUGTT against Miip: the z-score was inactive: -0.674.

Take GCUUCUUAUGGUCACUUAATT against Asb12: the z-score was inactive: 1.46.

GGCUCUACCUUAACCUAUATT against Aamdc: the z-score was inactive: -0.563.

On to CGACUCUCCAUCCUUAACATT against Dlx4, for which the z-score is inactive: -1.4.

With GGCCUGUGACAUUCAAUGCTT against Tctn2, the z-score is inactive: -0.422.

Turning to GGUGUCAGGGCAGUGUAAATT against Bach1, the z-score was inactive: 0.749.

Regarding GGUAGAAACCUCUACUGUCTT against Tmem169, the z-score was inactive: 0.363.

Regarding GAUUCUCAUCUCAAUAAGCTT against Serpinb9g, the z-score is inactive: 0.439.

As to GGCCAAUGAUGAUAACAAATT against Ctnnd2, the z-score is inactive: 1.34.

As to GCAUUUCGUACAGCAGAAATT against Pip4k2c, the z-score was inactive: -0.691.

As for GGGCUUGUGGCUUUAGUAUTT against Ccdc184, the z-score was inactive: 1.58.

As to GGGUUUUCCACGAUGGUUGTT against Phf24, the z-score was inactive: -0.331.

On to GGUAUAUGAAAGAUUGUCATT against Vps26a, for which the z-score is inactive: 0.213.

Regarding GGAUAAAGAAGGACUCAAATT against Tpbpb, the z-score is active: -2.16.

For GCCACAACUGGCACGUUACTT against Mbd3, the z-score is inactive: -0.817.

On to GGGUCGAAAUUGGGAUCCATT against Vps45, for which the z-score was inactive: 0.383.

As to CCAAAUGACAGCUAUGGCCTT against Gtf2ird2, the z-score was inactive: -0.312.

Regarding GGAUAACUCCUUAUUUAACTT against Teddm3, the z-score was inactive: 1.25.

In the case of GGAAUUCCAGACACCCAUCTT against Elof1, the z-score was inactive: -0.69.

Turning to CCCAUGUUUAUGUUGCUGATT against Olfr467, the z-score is inactive: 0.251.

With GCUUUUGACACUUAUAUGATT against Ptk7, the z-score was inactive: -0.299.

With GCCCAAGUGUGAUAAAUGCTT against Ntn4, the z-score was inactive: 0.874.

GCAUCUCGAUCAUAUCAUGTT against Pgm3: the z-score was inactive: 1.28.

As to GGUUCUCGAAAUAAGAAUGTT against Mcm8, the z-score was inactive: -0.121.

Regarding GGAAGUAUUACCCUCAAUUTT against Zfp212, the z-score is inactive: -0.674.

As for GUGAAAGUCGGAUUCAGUGTT against Acat2, the z-score was inactive: 0.377.

For GGAAUAUUCUAUUCCCUUUTT against Trim25, the z-score is inactive: 1.67.

GCCUGUCAUGGUUAUGACCTT against Shbg: the z-score is inactive: -0.803.

Consider GCAAAACCAUUUGAAAAUGTT against Negr1, for which the z-score is inactive: 0.438.

Turning to GGAGAUGAAGCAAUGGCCCTT against Bmp15, the z-score was inactive: 1.13.

GGCCAAGGUCAAUAACUCCTT against Rfc1: the z-score was inactive: -0.755.

In the case of CCUUGUUGAGAUCAAAUUGTT against Ubn2, the z-score is inactive: 1.53.

As to GGCAUUCCUAAUGACACGGTT against Dpep3, the z-score is inactive: -1.7.

Regarding GGGAGAAUCUAACUAAGCCTT against Sirt7, the z-score is inactive: 0.383.

GCAAUCACCAAAUCACUAGTT against Fstl1: the z-score is inactive: -0.123.

Regarding GAGACAAUUGUAACAUUCUTT against Olfr176, the z-score was inactive: 1.2.

On to GGUGGAUGGCUUCACGCAUTT against Calr3, for which the z-score is inactive: -0.925.

With “GCUAGGGUCUUUGUUAUAUTT against A630023P12Rik”, the z-score is inactive: -0.771.

As to GGUCAGAAGUUAAUUUAUGTT against Rad23b, the z-score was inactive: -0.413.

In the case of GCCUAAGAAGGAUAGUAUUTT against Taf5, the z-score is inactive: 0.0415.

For the sequence GGAAAAAUGGGAGUUUGAATT against Ccdc83, the z-score is inactive: -0.291.

Consider GGAAAACCUCAAACCUAACTT against Oas2, for which the z-score is inactive: 0.12.

GGUCGUAUUGCGCUAUAGCTT against Sh2b3: the z-score is inactive: -0.364.

With AAGGUGCAGAGUUACACGUTT against H2-T10, the z-score was inactive: 1.17.

In the case of GGAGUGGAUGUGAUUAUCATT against Dao, the z-score was inactive: -0.849.

Consider CCAGAGAUUGGACACAUCUTT against Vps33b, for which the z-score is inactive: -1.67.

For the sequence CCCUAGCAAAGCUACUUUCTT against Nhej1, the z-score is inactive: -1.67.

As for GGUUUAGCUGCUGACUUAATT against Strn3, the z-score is inactive: 1.03.

Turning to CCAAGUGACUACCAUGUCATT against Prss40, the z-score was inactive: -1.75.

In the case of GCUAUUCCAACAUGAAUCCTT against Klk1b21, the z-score was inactive: 0.712.

For the sequence GGGUUAUUCUACGAAUGCUTT against Thumpd1, the z-score was inactive: -1.9.

As to CCACCUCAGCUCUUGUGAUTT against H2-Ab1, the z-score was inactive: -0.598.

Take GGGUGCAUGUGUCAGAUUUTT against Olfr1277: the z-score was inactive: 0.163.

For CCAUCAACCAAUCAUACAGTT against Ints6, the z-score was inactive: 1.17.

As for GCAGUAACCUUCUAACAAATT against Foxn2, the z-score was inactive: -0.367.

With GGGAGCCAAUGAAAUCAAGTT against Hmbox1, the z-score is active: 3.31.

Consider GGCAGUCGGGAUUGUAAAATT against Gpr3, for which the z-score was inactive: -0.994.

For GCUACACCGUAACAUGCUATT against Zer1, the z-score is active: 2.19.

On to GGCUAUGCAGAUAAAUAUGTT against Lctl, for which the z-score is inactive: -1.09.

Regarding GGACACCAACAUAUUGUUCTT against Slc13a2, the z-score was inactive: -0.128.

For GCGGUGUGAAGAUUGUACATT against Hsd17b3, the z-score was inactive: 0.937.

For the sequence GGGUUAGACGAAGAUGAGATT against Psme3ip1, the z-score was inactive: -1.06.

On to CGAUAGUUUACAUGCUGAATT against Prr36, for which the z-score is inactive: 0.412.

Take CAUAAAGGUGGCACUAAUATT against Cnrip1: the z-score is inactive: -0.842.

As for GGUCUUGGAUGCAAACGAUTT against Pcdhga2, the z-score is inactive: 0.518.

On to GCAUGAAGGACUUUCGAAGTT against Tmem242, for which the z-score was inactive: 0.152.

For CCGCAUAUUUCAAUAAAUCTT against Rpl4, the z-score is inactive: -0.703.

GGUUCUUCCCAGAAGGAGGTT against Pramel12: the z-score is inactive: 0.588.

As for GGAGUUUAUCUUCAAGCAGTT against Tcp11, the z-score is inactive: 0.815.

Consider CCGAAUAAAGAUUCAUUCATT against Plin2, for which the z-score was inactive: 0.455.

GGCUUCCUGACUGUUCAGATT against Vmn1r25: the z-score was inactive: -0.292.

With CCUUAGUAACAGCACUAGCTT against Lrfn2, the z-score was inactive: -0.228.

On to GGCAAAAAACAAAGACCUUTT against Prl7d1, for which the z-score was inactive: -0.0334.

Take CCUUUAUCUUGGGAAUUGGTT against Pik3ca: the z-score was inactive: -0.854.

CCCUCCACUCCGUUUUUAUTT against Stim2: the z-score was inactive: -0.43.

Turning to GGUCGAGCAGAGUUGAAUCTT against Tars, the z-score was inactive: -1.34.

Turning to CCUAUUCUAUGAUGCACCCTT against Cyp2f2, the z-score was inactive: 0.145.

On to GGUUCUUGAUGAAAAUCUATT against Acox1, for which the z-score is inactive: 0.965.

Turning to CAGUGAUCGUCAUAGCCAUTT against Olfr478, the z-score is inactive: 0.135.

Consider GCCUCGAGAUAUUCUUUGUTT against Snrnp200, for which the z-score was active: -2.07.
